This is an account of results in publication doi:10.1101/2021.01.15.426831.

Amino acid sequences for entries named in this document (tags omitted). A change or cut given only in a name is not applied to a line headed by its entry. Chains listed by the source or under a name are the forms on record and can include a tag or linker. Residues count along the entry.
UniProt Q969U6: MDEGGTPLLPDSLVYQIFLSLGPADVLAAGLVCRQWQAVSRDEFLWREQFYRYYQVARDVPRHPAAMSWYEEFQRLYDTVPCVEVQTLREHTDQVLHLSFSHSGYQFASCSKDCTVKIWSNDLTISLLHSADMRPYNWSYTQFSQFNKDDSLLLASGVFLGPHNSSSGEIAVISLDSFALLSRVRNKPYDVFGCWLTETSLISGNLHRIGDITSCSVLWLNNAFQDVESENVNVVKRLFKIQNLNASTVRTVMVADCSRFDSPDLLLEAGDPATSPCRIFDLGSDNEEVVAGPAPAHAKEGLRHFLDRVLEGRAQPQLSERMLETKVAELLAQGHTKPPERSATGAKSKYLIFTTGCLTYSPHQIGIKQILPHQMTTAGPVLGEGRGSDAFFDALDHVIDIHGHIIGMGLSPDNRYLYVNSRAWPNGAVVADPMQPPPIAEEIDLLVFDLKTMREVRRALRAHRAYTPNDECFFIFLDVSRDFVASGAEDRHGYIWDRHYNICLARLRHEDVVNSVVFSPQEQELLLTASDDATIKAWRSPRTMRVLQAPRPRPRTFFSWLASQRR
Skp1ΔΔ (P63208, form named): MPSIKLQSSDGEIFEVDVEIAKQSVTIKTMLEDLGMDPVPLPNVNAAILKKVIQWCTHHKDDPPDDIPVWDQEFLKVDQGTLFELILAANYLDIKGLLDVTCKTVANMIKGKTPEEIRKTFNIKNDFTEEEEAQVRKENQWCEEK
UniProt Q969H0: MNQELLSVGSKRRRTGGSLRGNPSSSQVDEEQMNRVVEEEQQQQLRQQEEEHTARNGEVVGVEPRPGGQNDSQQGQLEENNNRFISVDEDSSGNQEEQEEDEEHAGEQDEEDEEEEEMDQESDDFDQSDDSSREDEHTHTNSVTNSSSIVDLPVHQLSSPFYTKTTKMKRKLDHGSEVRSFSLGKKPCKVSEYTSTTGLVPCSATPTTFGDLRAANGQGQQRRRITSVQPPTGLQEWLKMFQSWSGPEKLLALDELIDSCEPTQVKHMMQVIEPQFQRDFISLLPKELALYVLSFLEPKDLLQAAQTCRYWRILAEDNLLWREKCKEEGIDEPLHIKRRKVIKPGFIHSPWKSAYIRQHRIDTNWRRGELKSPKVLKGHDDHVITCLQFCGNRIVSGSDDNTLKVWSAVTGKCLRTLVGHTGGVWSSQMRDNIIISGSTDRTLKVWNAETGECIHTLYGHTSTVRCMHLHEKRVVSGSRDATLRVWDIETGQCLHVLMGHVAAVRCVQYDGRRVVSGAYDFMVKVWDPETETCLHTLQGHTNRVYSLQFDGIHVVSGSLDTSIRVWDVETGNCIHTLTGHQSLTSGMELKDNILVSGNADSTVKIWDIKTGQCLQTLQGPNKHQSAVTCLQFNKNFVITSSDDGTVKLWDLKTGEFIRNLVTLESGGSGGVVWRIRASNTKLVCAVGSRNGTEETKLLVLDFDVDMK
UniProt O00139, residues 28-706: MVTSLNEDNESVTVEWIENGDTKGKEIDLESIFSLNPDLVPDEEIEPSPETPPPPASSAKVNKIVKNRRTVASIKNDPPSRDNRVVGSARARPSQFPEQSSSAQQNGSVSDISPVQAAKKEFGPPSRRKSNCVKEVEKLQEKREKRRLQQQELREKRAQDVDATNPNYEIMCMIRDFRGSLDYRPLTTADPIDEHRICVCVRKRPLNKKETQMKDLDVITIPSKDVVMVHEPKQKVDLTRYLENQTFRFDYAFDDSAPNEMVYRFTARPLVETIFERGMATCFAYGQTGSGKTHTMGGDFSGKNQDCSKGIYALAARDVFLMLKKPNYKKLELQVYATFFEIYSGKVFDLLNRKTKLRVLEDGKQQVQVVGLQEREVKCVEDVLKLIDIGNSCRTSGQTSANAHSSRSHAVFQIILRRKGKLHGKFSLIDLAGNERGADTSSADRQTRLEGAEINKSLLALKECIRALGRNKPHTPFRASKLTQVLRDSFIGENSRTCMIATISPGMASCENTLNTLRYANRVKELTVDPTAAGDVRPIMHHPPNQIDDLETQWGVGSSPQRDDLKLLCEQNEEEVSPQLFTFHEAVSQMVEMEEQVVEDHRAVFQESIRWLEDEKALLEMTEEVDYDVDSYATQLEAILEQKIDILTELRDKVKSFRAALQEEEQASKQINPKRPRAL
UniProt Q8N4N8: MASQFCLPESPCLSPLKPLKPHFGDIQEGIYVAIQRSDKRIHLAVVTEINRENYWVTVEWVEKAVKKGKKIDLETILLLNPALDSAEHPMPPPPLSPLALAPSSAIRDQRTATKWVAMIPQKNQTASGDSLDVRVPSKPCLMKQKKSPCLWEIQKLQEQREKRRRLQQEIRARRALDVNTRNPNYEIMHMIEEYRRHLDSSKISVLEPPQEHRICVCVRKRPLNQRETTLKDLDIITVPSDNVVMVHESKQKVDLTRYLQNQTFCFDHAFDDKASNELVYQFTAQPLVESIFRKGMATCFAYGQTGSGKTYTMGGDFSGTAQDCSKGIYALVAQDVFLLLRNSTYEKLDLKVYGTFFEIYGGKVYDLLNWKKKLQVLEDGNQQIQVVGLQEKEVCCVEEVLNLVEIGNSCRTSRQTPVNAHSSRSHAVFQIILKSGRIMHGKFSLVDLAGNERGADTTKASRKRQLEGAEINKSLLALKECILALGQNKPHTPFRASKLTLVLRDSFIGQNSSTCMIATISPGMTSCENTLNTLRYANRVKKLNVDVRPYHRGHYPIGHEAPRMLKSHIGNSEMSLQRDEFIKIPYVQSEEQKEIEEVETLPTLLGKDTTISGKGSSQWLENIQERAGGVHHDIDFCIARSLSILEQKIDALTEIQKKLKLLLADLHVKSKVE
UniProt P09211: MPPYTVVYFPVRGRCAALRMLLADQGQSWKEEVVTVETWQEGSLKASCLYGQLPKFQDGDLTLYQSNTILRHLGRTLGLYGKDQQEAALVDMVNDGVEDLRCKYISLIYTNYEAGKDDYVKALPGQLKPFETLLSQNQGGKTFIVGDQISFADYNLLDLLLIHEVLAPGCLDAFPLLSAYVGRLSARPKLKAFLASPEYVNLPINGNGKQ
UniProt O14964: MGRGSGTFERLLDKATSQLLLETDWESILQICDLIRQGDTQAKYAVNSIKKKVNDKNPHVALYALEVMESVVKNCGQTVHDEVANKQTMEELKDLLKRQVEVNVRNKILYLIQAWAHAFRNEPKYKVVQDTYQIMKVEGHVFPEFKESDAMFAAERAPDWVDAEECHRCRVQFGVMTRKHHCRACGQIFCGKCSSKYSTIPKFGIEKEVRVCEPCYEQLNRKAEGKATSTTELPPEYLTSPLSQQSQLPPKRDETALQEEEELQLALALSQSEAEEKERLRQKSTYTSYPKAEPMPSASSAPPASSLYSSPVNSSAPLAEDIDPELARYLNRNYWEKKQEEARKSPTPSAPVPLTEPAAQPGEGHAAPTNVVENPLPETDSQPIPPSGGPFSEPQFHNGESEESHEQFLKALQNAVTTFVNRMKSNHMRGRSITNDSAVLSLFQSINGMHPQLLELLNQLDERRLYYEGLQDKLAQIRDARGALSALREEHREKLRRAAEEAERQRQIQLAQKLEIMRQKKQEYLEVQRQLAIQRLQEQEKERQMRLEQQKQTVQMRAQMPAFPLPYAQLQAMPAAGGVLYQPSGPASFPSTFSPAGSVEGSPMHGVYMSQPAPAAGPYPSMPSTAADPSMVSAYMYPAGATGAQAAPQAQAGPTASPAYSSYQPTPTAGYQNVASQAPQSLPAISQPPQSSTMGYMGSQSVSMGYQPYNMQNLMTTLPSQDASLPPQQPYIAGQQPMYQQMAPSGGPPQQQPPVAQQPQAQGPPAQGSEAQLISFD

Read-outs that look alike come from different tables or passages of the source. These are yes or no findings as the source states them, for the method shown. For part of these data: In cells and extracts the contact can be indirect. Some results given as binding are weak or reduced against the parent protein; the word gives no strength. For part of these data: Sequences can lack the tags named with a protein.

The target in test [1] is Flag-Fbxw5 (full length) (human) (UniProt Q969U6). As to the kind of experiment: co-IP.
The target in test [2] is Fbxw5/Skp1 sub-complex (human) (UniProt Q969U6+P63208). As to the kind of experiment: pull-down.
Test [3] addresses Fbxw5 expressed in Sf21 cells (human) (UniProt Q969U6). As to the kind of experiment: co-purification.
Test [4] addresses endogenous Fbxw5 (human (endogenous; all cell lines of the paper are human)) (UniProt Q969U6). As to the kind of experiment: co-IP.
The target of test [5] is Flag-Fbxw5 (full length) (human) (UniProt Q969U6). Kind of test: co-IP. The source holds these as a separate data set.
The target of a further test is Fbxw7 (human) (UniProt Q969H0). As to the kind of experiment: co-IP.
For test [6], the target named is HaloTag(HT)-tagged Fbxw5 (human) (UniProt Q969U6). Kind of test: FRET or BRET.

As to HA-Kif2A (from UniProt O00139-1 1-679), the binding entry in test [1] is recorded as “binds weakly”. In the case of HA-Kif2B (from UniProt Q8N4N8 1-673), the binding entry in test [1] is given as “binds”.

For the molecule “Kif2A purified from Sf21 cells (from UniProt O00139-1 1-679)”, in test [2], the binding entry is reported as “binds”. As to Skp1ΔΔ (from UniProt P63208 1-163), in test [3], the binding entry was “binds”. For “endogenous GSTP1 (from UniProt P09211 1-210)”, in test [1], the binding result was “binds”. On to “endogenous HGS (from UniProt O14964 1-777)”, for which the binding entry in test [1] and in test [4] was “binds” in each case.

B1: endogenous CSRP2 (protein, UniProt Q16527 1-193)
chain: MPVWGGGNKCGACGRTVYHAEEVQCDGRSFHRCCFLCMVCRKNLDSTTVAIHDEEIYCKSCYGKKYGPKGYGYGQGAGTLNMDRGERLGIKPESVQPHRPTTNPNTSKFAQKYGGAEKCSRCGDSVYAAEKIIGAGKPWHKNCFRCAKCGKSLESTTLTEKEGEIYCKGCYAKNFGPKGFGYGQGAGALVHAQ
As to B1, the binding result in test [5] was “binds”.

B2: HA-MCAK (protein, UniProt Q99661 1-725)
chain: MAMDSSLQARLFPGLAIKIQRSNGLIHSANVRTVNLEKSCVSVEWAEGGATKGKEIDFDDVAAINPELLQLLPLHPKDNLPLQENVTIQKQKRRSVNSKIPAPKESLRSRSTRMSTVSELRITAQENDMEVELPAAANSRKQFSVPPAPTRPSCPAVAEIPLRMVSEEMEEQVHSIRGSSSANPVNSVRRKSCLVKEVEKMKNKREEKKAQNSEMRMKRAQEYDSSFPNWEFARMIKEFRATLECHPLTMTDPIEEHRICVCVRKRPLNKQELAKKEIDVISIPSKCLLLVHEPKLKVDLTKYLENQAFCFDFAFDETASNEVVYRFTARPLVQTIFEGGKATCFAYGQTGSGKTHTMGGDLSGKAQNASKGIYAMASRDVFLLKNQPCYRKLGLEVYVTFFEIYNGKLFDLLNKKAKLRVLEDGKQQVQVVGLQEHLVNSADDVIKMIDMGSACRTSGQTFANSNSSRSHACFQIILRAKGRMHGKFSLVDLAGNERGADTSSADRQTRMEGAEINKSLLALKECIRALGQNKAHTPFRESKLTQVLRDSFIGENSRTCMIATISPGISSCEYTLNTLRYADRVKELSPHSGPSGEQLIQMETEEMEACSNGALIPGNLSKEEEELSSQMSSFNEAMTQIRELEEKAMEELKEIIQQGPDWLELSEMTEQPDYDLETFVNKAESALAQQAKHFSALRDVIKALRLAMQLEEQASRQISSKKRPQ
For the molecule B2, the binding entry with Fbxw7 (human) is listed as “no binding”; in test [5], “binds”.

B3: MCAK purified from Sf21 cells (protein, UniProt Q99661 1-725)
chain: MAMDSSLQARLFPGLAIKIQRSNGLIHSANVRTVNLEKSCVSVEWAEGGATKGKEIDFDDVAAINPELLQLLPLHPKDNLPLQENVTIQKQKRRSVNSKIPAPKESLRSRSTRMSTVSELRITAQENDMEVELPAAANSRKQFSVPPAPTRPSCPAVAEIPLRMVSEEMEEQVHSIRGSSSANPVNSVRRKSCLVKEVEKMKNKREEKKAQNSEMRMKRAQEYDSSFPNWEFARMIKEFRATLECHPLTMTDPIEEHRICVCVRKRPLNKQELAKKEIDVISIPSKCLLLVHEPKLKVDLTKYLENQAFCFDFAFDETASNEVVYRFTARPLVQTIFEGGKATCFAYGQTGSGKTHTMGGDLSGKAQNASKGIYAMASRDVFLLKNQPCYRKLGLEVYVTFFEIYNGKLFDLLNKKAKLRVLEDGKQQVQVVGLQEHLVNSADDVIKMIDMGSACRTSGQTFANSNSSRSHACFQIILRAKGRMHGKFSLVDLAGNERGADTSSADRQTRMEGAEINKSLLALKECIRALGQNKAHTPFRESKLTQVLRDSFIGENSRTCMIATISPGISSCEYTLNTLRYADRVKELSPHSGPSGEQLIQMETEEMEACSNGALIPGNLSKEEEELSSQMSSFNEAMTQIRELEEKAMEELKEIIQQGPDWLELSEMTEQPDYDLETFVNKAESALAQQAKHFSALRDVIKALRLAMQLEEQASRQISSKKRPQ
Turning to B3, the binding result in test [2] is reported as “binds”.

B4: MCAK fused to NanoLuc luciferase (protein, UniProt Q99661 1-725)
chain: MAMDSSLQARLFPGLAIKIQRSNGLIHSANVRTVNLEKSCVSVEWAEGGATKGKEIDFDDVAAINPELLQLLPLHPKDNLPLQENVTIQKQKRRSVNSKIPAPKESLRSRSTRMSTVSELRITAQENDMEVELPAAANSRKQFSVPPAPTRPSCPAVAEIPLRMVSEEMEEQVHSIRGSSSANPVNSVRRKSCLVKEVEKMKNKREEKKAQNSEMRMKRAQEYDSSFPNWEFARMIKEFRATLECHPLTMTDPIEEHRICVCVRKRPLNKQELAKKEIDVISIPSKCLLLVHEPKLKVDLTKYLENQAFCFDFAFDETASNEVVYRFTARPLVQTIFEGGKATCFAYGQTGSGKTHTMGGDLSGKAQNASKGIYAMASRDVFLLKNQPCYRKLGLEVYVTFFEIYNGKLFDLLNKKAKLRVLEDGKQQVQVVGLQEHLVNSADDVIKMIDMGSACRTSGQTFANSNSSRSHACFQIILRAKGRMHGKFSLVDLAGNERGADTSSADRQTRMEGAEINKSLLALKECIRALGQNKAHTPFRESKLTQVLRDSFIGENSRTCMIATISPGISSCEYTLNTLRYADRVKELSPHSGPSGEQLIQMETEEMEACSNGALIPGNLSKEEEELSSQMSSFNEAMTQIRELEEKAMEELKEIIQQGPDWLELSEMTEQPDYDLETFVNKAESALAQQAKHFSALRDVIKALRLAMQLEEQASRQISSKKRPQ
As for B4, the binding result in test [6] was “binds”.
